Assay: general procedure: Fmoc solid-phase peptide synthesis; Fmoc-Rink-MBHA resin (0.4 mmol/g); Oxyma/DIPCDI
Conditions: whole synthesis, analytical HPLC, Kromasil 100 C18, detection at 220 nm

## c(k(CO-C3H7)KLKKFKKLQ)
  purity (crude or final not stated): 89%

## c(KKLKK(CO-C11H22OH)FKKLQ)
  purity (crude or final not stated): 82%

## c(KKLKK(CO-C6H13)FKKLQ)
  purity (crude or final not stated): 91%

## c(KKLKK(CO-C3H7)HKKLQ)
  purity (crude or final not stated): 88%

## c(KKLKKFK(CO-nC5H11)KLQ)
  purity (crude or final not stated): 98%

## c(Kk(CO-nC5H11)LKKFKKLQ)
  purity (crude or final not stated): 94%

## c(KKLKk(LK-CO-C3H7)FKKLQ)
  purity (crude or final not stated): 97%

## c(KKLKk(CO-C7H15)FKKLQ)
  purity (crude or final not stated): 99%

## c(KKLKK(CO-C7H15)HKKLQ)
  purity (crude or final not stated): 87%

## c(KKLKk(LK-CO-nC5H11)FKKLQ)
  purity (crude or final not stated): 95%

## c(KKLKK(CO-C8H17)FKKLQ)
  purity (crude or final not stated): 86%

## c(K(CO-C3H7)KLKKHKKLQ)
  purity (crude or final not stated): 88%

## c(Kk(CO-C3H7)LKKFKKLQ)
  purity (crude or final not stated): 97%

## c(KKLKK(LK-CO-C3H7)fKKLQ)
  purity (crude or final not stated): 97%

## c(K(CO-nC5H11)KLKKHKKLQ)
  purity (crude or final not stated): 91%

## c(K(CO-nC5H11)KLKKFKKLQ)
  purity (crude or final not stated): 99%

## c(KKLKKFKK(CO-nC5H11)LQ)
  purity (crude or final not stated): 99%

## c(KK(CO-nC5H11)LKKHKKLQ)
  purity (crude or final not stated): 96%

## c(KKLKk(CO-C3H7)FKKLQ)
  purity (crude or final not stated): 99%

## c(KKLKK(CO-nC5H11)FKKLQ)
  purity (crude or final not stated): 91%

## c(KKLKK(LK-CO-C3H7)HKKLQ)
  purity (crude or final not stated): 99%

## c(K(CO-C3H7)KLKKFKKLQ)
  purity (crude or final not stated): 95%

## c(KKLKK(CO-isoC5H11)fKKLQ)
  purity (crude or final not stated): 96%

## c(KKLKk(CO-isoC5H11)FKKLQ)
  purity (crude or final not stated): 95%

## c(KKLKK(CO-C15H31)FKKLQ)
  purity (crude or final not stated): 85%

## c(KKLK(CO-nC5H11)KFKKLQ)
  purity (crude or final not stated): 99%

## c(KKLKK(CO-nC5H11)HKKLQ)
  purity (crude or final not stated): 89%

## c(KKLKK(LK-CO-nC5H11)HKKLQ)
  purity (crude or final not stated): 91%

## c(KKLKK(CO-C7H15)FKKLQ)
  purity (crude or final not stated): 87%

## c(KKLKK(CO-C7H15)fKKLQ)
  purity (crude or final not stated): 86%

## c(KKLKk(CO-nC5H11)FKKLQ)
  purity (crude or final not stated): 91%

## c(KKLKK(CO-C11H23)FKKLQ)
  purity (crude or final not stated): 83%

## c(KKLKK(CO-C4H9)FKKLQ)
  purity (crude or final not stated): 97%

## c(k(CO-nC5H11)KLKKFKKLQ)
  purity (crude or final not stated): 97%

## c(KKLKK(LK-CO-nC5H11)FKKLQ)
  purity (crude or final not stated): 98%

## c(KKLKK(CO-C3H7)fKKLQ)
  purity (crude or final not stated): 97%

## c(KKLKK(LK-CO-nC5H11)fKKLQ)
  purity (crude or final not stated): 92%

## c(KK(CO-nC5H11)LKKFKKLQ)
  purity (crude or final not stated): 92%

## c(KK(CO-C3H7)LKKFKKLQ)
  purity (crude or final not stated): 99%

## c(KK(CO-C3H7)LKKHKKLQ)
  purity (crude or final not stated): 89%

## c(KKLKK(CO-isoC5H11)HKKLQ)
  purity (crude or final not stated): 90%

## c(KKLKK(CO-isoC5H11)FKKLQ)
  purity (crude or final not stated): 87%

## c(KKLKK(CO-nC5H11)fKKLQ)
  purity (crude or final not stated): 99%

## c(KKLKK(CO-C3H7)FKKLQ)
  purity (crude or final not stated): 96%

Reference: PMC4805166 (PLoS ONE, 2016)
